Measurements from patent publication US20230287071A1.

Target: HLA-B*44:05 (human)
Experiment: UV peptide-exchange ELISA, yield grade

Question: KEAINLLKNY [… (SEQ ID NO: 423)] was tested. Which binding did it give?
Answer: binds

Question: With EEHVYESIIRW [… (SEQ ID NO: 424)] as the binder, how does the binding read?
Answer: binds

Question: With AESLFREAL [… (SEQ ID NO: 426)] as the binder, how does the binding read?
Answer: binds

Question: AEMLGSVVGNW [… (SEQ ID NO: 427)] was tested. Which binding did it give?
Answer: binds

Question: Which binding does the source give for AEEKAAVTSL [… (SEQ ID NO: 428)] here?
Answer: binds

Question: Which binding does the source give for RETEDYSKQAL [… (SEQ ID NO: 429)] here?
Answer: binds

Question: For RELARVVTL [… (SEQ ID NO: 430)], which binding is on record?
Answer: binds

Question: With QELLDFTNW [… (SEQ ID NO: 431)] as the binder, how does the binding read?
Answer: binds

Question: For RELVHMINW [… (SEQ ID NO: 35)], which binding is on record?
Answer: binds

Question: How did the binding turn out when TEENGFWYL [… (SEQ ID NO: 432)] was run?
Answer: binds

Question: Which binding does the source give for AEEGPSVPKIY [… (SEQ ID NO: 433)] here?
Answer: binds

Question: How did the binding turn out when AEQQQQQMY [… (SEQ ID NO: 434)] was run?
Answer: binds

Question: Which binding does the source give for FETEQALRL [… (SEQ ID NO: 435)] here?
Answer: binds

Question: How did the binding turn out when AEADLSYTWDF [… (SEQ ID NO: 436)] was run?
Answer: binds

Question: HEDPSGSLHL [… (SEQ ID NO: 437)] was tested. Which binding did it give?
Answer: binds

Question: How did the binding turn out when AELDSKILAL [… (SEQ ID NO: 438)] was run?
Answer: binds

Question: For VEVGDRTDW [… (SEQ ID NO: 439)], which binding is on record?
Answer: binds

Question: How did the binding turn out when QEVAQVASA [… (SEQ ID NO: 440)] was run?
Answer: binds

Question: How did the binding turn out when QEVAQVASAIL [… (SEQ ID NO: 441)] was run?
Answer: binds

Question: How did the binding turn out when LEQASRIWSW [… (SEQ ID NO: 36)] was run?
Answer: binds

Question: With KESDAGKYY [… (SEQ ID NO: 442)] as the binder, how does the binding read?
Answer: binds

Question: With EEYAGQITL [… (SEQ ID NO: 443)] as the binder, how does the binding read?
Answer: binds

Question: Which binding does the source give for SESALQTVI [… (SEQ ID NO: 444)] here?
Answer: binds

Question: For QEVGEITNL [… (SEQ ID NO: 445)], which binding is on record?
Answer: binds

Question: Which binding does the source give for AENIKKFLY [… (SEQ ID NO: 446)] here?
Answer: binds

Question: KEFGLDSVEL [… (SEQ ID NO: 447)] was tested. Which binding did it give?
Answer: binds

Question: ALSPVPSHW [… (SEQ ID NO: 448)] was tested. Which binding did it give?
Answer: binds

Question: Which binding does the source give for RENDFEPKF [… (SEQ ID NO: 449)] here?
Answer: binds

Question: For REIENGNSF [… (SEQ ID NO: 450)], which binding is on record?
Answer: binds

Question: Which binding does the source give for REYEDGPLSL [… (SEQ ID NO: 451)] here?
Answer: binds

Question: IEQGRVVLW [… (SEQ ID NO: 37)] was tested. Which binding did it give?
Answer: binds

Question: Which binding does the source give for NEVDGEYRY [… (SEQ ID NO: 452)] here?
Answer: binds

Question: For SESKVFQLL [… (SEQ ID NO: 453)], which binding is on record?
Answer: binds

Question: How did the binding turn out when SESSSAFQF [… (SEQ ID NO: 454)] was run?
Answer: binds

Question: How did the binding turn out when QESVHVASYYW [… (SEQ ID NO: 455)] was run?
Answer: binds

Question: How did the binding turn out when SESPIRISV [… (SEQ ID NO: 456)] was run?
Answer: binds

Question: Which binding does the source give for DEVRFFKGNKY [… (SEQ ID NO: 38)] here?
Answer: binds

Question: For AEAMGKFKQCF [… (SEQ ID NO: 39)], which binding is on record?
Answer: binds

Question: With REVDPDDSYVF [… (SEQ ID NO: 40)] as the binder, how does the binding read?
Answer: binds

Question: With EENTGKTYF [… (SEQ ID NO: 41)] as the binder, how does the binding read?
Answer: binds

Question: With SEENTGKTYF [… (SEQ ID NO: 42)] as the binder, how does the binding read?
Answer: binds

Question: Which binding does the source give for SEFGAPRW [SEFGAPRW (SEQ ID NO: 44)] here?
Answer: binds

Question: How did the binding turn out when EEINELNRMI [… (SEQ ID NO: 45)] was run?
Answer: binds

Question: SELGLPKEV [… (SEQ ID NO: 46)] was tested. Which binding did it give?
Answer: binds

Question: Which binding does the source give for TEVHSSPAQRW [… (SEQ ID NO: 47)] here?
Answer: binds

Question: For SEYVHSSF [SEYVHSSF (SEQ ID NO: 49)], which binding is on record?
Answer: binds

Question: Which binding does the source give for SEYVHSSFSGF [… (SEQ ID NO: 50)] here?
Answer: binds

Question: For VEMTGKHQL [… (SEQ ID NO: 51)], which binding is on record?
Answer: binds

Question: EDNPSGHTY [… (SEQ ID NO: 52)] was tested. Which binding did it give?
Answer: binds

Question: Which binding does the source give for KEDNPSGHTY [… (SEQ ID NO: 53)] here?
Answer: binds

Question: Which binding does the source give for QEISAHRTEF [… (SEQ ID NO: 54)] here?
Answer: binds

Question: Which binding does the source give for TEFHMQFSY [… (SEQ ID NO: 55)] here?
Answer: binds

Question: With ALEEGGGYIF [… (SEQ ID NO: 56)] as the binder, how does the binding read?
Answer: binds

Question: With SEATHIITI [… (SEQ ID NO: 57)] as the binder, how does the binding read?
Answer: binds

Question: With KEMDPSRQSY [… (SEQ ID NO: 58)] as the binder, how does the binding read?
Answer: binds

Question: AEIEADRSYQ [… (SEQ ID NO: 59)] was tested. Which binding did it give?
Answer: binds

Question: For EEAVRSVAF [… (SEQ ID NO: 60)], which binding is on record?
Answer: binds

Question: Which binding does the source give for AEYSVHKI [AEYSVHKI (SEQ ID NO: 61)] here?
Answer: binds

Question: For AEYSVHKITSTF [… (SEQ ID NO: 62)], which binding is on record?
Answer: binds

Question: Which binding does the source give for EEYQDSFERY [… (SEQ ID NO: 64)] here?
Answer: binds

Question: For SESMVESKF [… (SEQ ID NO: 65)], which binding is on record?
Answer: binds

Question: With AEVTLNNTI [… (SEQ ID NO: 66)] as the binder, how does the binding read?
Answer: binds

Question: Which binding does the source give for TEGAVEVKY [… (SEQ ID NO: 67)] here?
Answer: binds

Question: How did the binding turn out when NEIDIHSIYF [… (SEQ ID NO: 68)] was run?
Answer: binds

Question: With DENIQKFIW [… (SEQ ID NO: 69)] as the binder, how does the binding read?
Answer: binds

Question: AEAEEAMKRL [… (SEQ ID NO: 70)] was tested. Which binding did it give?
Answer: binds

Question: With AEVGDIIKV [… (SEQ ID NO: 71)] as the binder, how does the binding read?
Answer: binds

Question: Which binding does the source give for AEVGDIIKVHF [… (SEQ ID NO: 72)] here?
Answer: binds

Question: How did the binding turn out when GEGTLRLSW [… (SEQ ID NO: 73)] was run?
Answer: binds

Question: AELEGALQKA [… (SEQ ID NO: 74)] was tested. Which binding did it give?
Answer: binds

Question: With LETSCGSSTAY [… (SEQ ID NO: 75)] as the binder, how does the binding read?
Answer: binds

Question: Which binding does the source give for RLNEHPSNNW [… (SEQ ID NO: 76)] here?
Answer: binds

Question: QETLAESTW [… (SEQ ID NO: 77)] was tested. Which binding did it give?
Answer: binds

Question: With TEFSNHINL [… (SEQ ID NO: 78)] as the binder, how does the binding read?
Answer: binds

Question: Which binding does the source give for TEAQRLDCW [… (SEQ ID NO: 79)] here?
Answer: binds

Question: For TEQSLYYRQW [… (SEQ ID NO: 80)], which binding is on record?
Answer: binds

Results are given in words; binding and its absence hold for the method and conditions named. Binding calls can cover weak binding; strength is not graded here.
